Experiment [1] has as its target T1, IBH1–cYFP (ILI1 BINDING bHLH PROTEIN1 fused to the C-terminal half of YFP) (Arabidopsis thaliana) (UniProt Q9SKX1).
T1 sequence: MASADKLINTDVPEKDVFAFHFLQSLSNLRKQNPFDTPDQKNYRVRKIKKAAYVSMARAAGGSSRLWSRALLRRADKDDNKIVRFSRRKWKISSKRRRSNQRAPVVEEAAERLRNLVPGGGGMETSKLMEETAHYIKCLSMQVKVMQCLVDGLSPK
Kind of experiment: split reporter; BiFC: nYFP and cYFP fusions co-transformed into A. thaliana mesophyll protoplasts; YFP signal seen by confocal microscopy.

The target in experiment [2] is T2, HBI1–cYFP (HOMOLOG OF BEE2 … WITH IBH1 fused to the C-terminal half of YFP) (Arabidopsis thaliana) (UniProt Q9ZPW3).
T2 sequence: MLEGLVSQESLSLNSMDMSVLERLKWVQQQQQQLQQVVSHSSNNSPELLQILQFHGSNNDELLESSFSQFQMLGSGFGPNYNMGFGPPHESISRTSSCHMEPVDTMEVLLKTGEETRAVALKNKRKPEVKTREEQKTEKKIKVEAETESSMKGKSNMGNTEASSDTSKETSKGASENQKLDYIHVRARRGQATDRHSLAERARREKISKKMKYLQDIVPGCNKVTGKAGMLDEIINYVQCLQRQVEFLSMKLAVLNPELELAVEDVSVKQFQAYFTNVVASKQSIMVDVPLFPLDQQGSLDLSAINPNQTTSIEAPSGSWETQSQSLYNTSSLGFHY
The experiment is described as above.

These are yes or no findings as the source states them, for the method shown. Binding seen in cells or lysates may run through a third protein. Some binding calls cover weakened binding; strength is not graded here. Where a sequence is shown, tags or fusion partners need not be part of it.

B1: HBI1–nYFP (HOMOLOG OF BEE2 … WITH IBH1 fused to the N-terminal half of YFP) (protein, UniProt Q9ZPW3 1-337)
chain: T2 sequence
On to B1, for which the binding entry in experiment [1] is listed as “binds”.

B2: BEE2–nYFP (BRASSINOSTEROID ENHANCED EXPRESSION2 fused to the N-terminal half of YFP) (protein, UniProt Q93VJ4 1-304)
chain: MDLSVLDRLKWLQQQQMVSPEFLQILGSDGREELKRVESYLGNNNDELQSFRHFPEFGPDYDTTDGCISRTSSFHMEPVKNNGHSRAITLQNKRKPEGKTEKREKKKIKAEDETEPSMKGKSNMSNTETSSEIQKPDYIHVRARRGEATDRHSLAERARREKISKKMKCLQDIVPGCNKVTGKAGMLDEIINYVQSLQQQVEFLSMKLSVINPELECHIDDLSAKQFQAYFTGPPEGDSKQSIMADFRSFPLHQQGSLDYSVINSDHTTSLGAKDHTSSSWETHSQCLYNSLRTDSVSNFFSLK
With B2, the binding result in experiment [2] and in experiment [1] was “binds” in each case.

Source of the values: article PMC8219041, “A transcriptional hub integrating gibberellin–brassinosteroid signals to promote seed germination in Arabidopsis”.
